Our source for the binding values is paper doi:10.1101/2021.06.29.450327.

Amino acid sequences for entries named in this document (tags omitted). A change or cut given only in a name is not applied to a line headed by its entry.
UniProt P28300: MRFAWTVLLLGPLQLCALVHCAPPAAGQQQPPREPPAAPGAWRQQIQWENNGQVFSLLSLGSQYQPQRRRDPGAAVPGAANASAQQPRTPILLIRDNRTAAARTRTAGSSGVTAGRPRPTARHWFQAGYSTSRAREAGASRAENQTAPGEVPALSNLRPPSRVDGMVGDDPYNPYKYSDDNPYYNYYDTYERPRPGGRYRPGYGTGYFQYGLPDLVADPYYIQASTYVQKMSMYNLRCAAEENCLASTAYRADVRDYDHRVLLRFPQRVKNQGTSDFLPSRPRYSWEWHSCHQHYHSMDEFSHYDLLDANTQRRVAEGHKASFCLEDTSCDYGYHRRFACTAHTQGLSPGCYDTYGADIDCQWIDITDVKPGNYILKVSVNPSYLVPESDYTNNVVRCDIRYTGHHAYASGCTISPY
UniProt P28301: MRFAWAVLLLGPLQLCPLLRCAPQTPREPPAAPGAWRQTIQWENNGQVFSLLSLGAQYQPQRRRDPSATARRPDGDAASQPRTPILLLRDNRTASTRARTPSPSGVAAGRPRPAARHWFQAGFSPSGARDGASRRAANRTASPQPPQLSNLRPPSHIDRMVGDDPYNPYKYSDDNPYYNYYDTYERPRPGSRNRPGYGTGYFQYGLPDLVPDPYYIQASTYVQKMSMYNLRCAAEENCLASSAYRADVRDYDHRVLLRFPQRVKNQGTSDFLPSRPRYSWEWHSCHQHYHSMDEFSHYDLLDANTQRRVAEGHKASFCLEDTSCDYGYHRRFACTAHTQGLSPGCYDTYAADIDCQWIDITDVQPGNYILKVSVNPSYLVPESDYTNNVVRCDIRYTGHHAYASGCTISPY

Assay [1] addresses T1, endogenous Meflin (human fibroblasts) (human (endogenous in fHDF/TERT166 and NHDF fibroblasts)) (UniProt O14498).
T1 sequence: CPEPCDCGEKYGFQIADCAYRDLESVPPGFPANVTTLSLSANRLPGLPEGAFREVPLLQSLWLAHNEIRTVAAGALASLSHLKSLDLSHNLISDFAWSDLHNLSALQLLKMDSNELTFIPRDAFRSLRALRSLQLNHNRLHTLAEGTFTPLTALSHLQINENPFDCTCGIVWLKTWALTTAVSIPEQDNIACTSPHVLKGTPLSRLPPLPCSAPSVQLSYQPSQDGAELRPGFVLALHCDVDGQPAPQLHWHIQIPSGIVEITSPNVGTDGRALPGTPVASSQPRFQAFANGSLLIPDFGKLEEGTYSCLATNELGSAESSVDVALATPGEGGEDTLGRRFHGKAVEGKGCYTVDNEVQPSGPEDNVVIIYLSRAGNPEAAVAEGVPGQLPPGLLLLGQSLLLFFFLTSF
The assay is described as follows: co-IP.

The target of assay [2] is T2, HA-Meflin (mouse Meflin, mMeflin) (mouse) (UniProt Q6GU68).
T2 sequence: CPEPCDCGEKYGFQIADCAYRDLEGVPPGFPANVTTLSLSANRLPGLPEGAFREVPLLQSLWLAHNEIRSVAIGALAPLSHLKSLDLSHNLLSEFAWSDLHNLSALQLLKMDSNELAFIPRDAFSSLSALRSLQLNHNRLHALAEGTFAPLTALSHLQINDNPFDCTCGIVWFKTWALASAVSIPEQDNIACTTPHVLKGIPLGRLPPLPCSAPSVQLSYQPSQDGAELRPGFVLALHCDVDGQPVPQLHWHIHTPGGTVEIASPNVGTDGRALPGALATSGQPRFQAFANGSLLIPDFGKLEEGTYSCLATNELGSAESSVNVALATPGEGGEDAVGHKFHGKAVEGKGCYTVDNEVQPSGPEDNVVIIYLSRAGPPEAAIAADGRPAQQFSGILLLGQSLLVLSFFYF
The assay is described as follows: co-IP.

No constants are given. Whether binding was seen depends on the method and setting. In cells and extracts the contact can be indirect. Binding can be weak; no strength is given. For some assays here: Where a sequence is shown, tags or fusion partners need not be part of it.

In the case of “endogenous Lox (human fibroblasts) (from UniProt P28300) (enzyme)”, in assay [1], the binding entry is “binds”.

Take “mouse Lox (mLox) (from UniProt P28301) (enzyme)”: in assay [2], the binding result is recorded as “binds”.
